Some of the results follow.

Protein sequences, listed by entry. Tags and fused reporters are not part of them.
UniProt Q0JBA9, entry or part of it: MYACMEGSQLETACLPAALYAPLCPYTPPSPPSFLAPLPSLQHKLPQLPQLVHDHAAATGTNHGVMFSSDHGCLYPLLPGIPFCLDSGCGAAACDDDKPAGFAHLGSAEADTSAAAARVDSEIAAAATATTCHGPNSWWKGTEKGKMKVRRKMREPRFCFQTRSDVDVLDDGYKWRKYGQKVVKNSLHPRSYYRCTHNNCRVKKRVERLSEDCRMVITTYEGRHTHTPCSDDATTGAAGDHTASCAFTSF

For 23 sequences, binding signal results are on record in paper PMC7819943, “Rice protein-binding microarrays: a tool to detect cis-acting elements near promoter regions in rice”.

This test concerns the target OsWRKY34 (Oryza sativa, UniProt Q0JBA9 1-250). As to the kind of experiment: protein-binding microarray (RPBM); PBS, 2% BSA, 51.3 ng/ul salmon testes DNA, 50 uM zinc acetate, 200 nM TF, 25 C, 1 h; high values mean tight binding. Particulars: protein: recombinant; tags: N-terminal polyhistidine and DsRed monomer fusion (pET32a); label: CyDye5-dUTP incorporated in the synthesized complementary strand; 3' TTTTT single-stranded linker to array surface; dsDNA, one strand shown. The method in brief: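 Transcription factors, each fused N-terminally to a polyhistidine tag and DsRed, were expressed in E. coli BL21-CodonPlus and purified on Ni–NTA. A custom Agilent array was made double-stranded by primer extension with Cy5-dUTP and blocked with 2% BSA. It was incubated with 200 nM protein in PBS, 2% BSA, salmon testes DNA and 50 µM zinc acetate at 25 °C for 1 h, then washed. The binding signal is per-feature fluorescence intensity (arbitrary units) read on an Axon 4000B scanner.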
Consider “TGGTTCATACAATTCAATCATTTCGTTGTCTAATTTTATTCGGAGTCACCTAGTGCAG”, for which the binding signal is 11200 fluorescence intensity (a.u.).
In the case of “GATCAGTGGGGCGTGGGTACAATCACAGATTGCCGAAATTCGGAGTCACCTAGTGCAG” it was 13500 fluorescence intensity (a.u.); in that of “ACTTTTTAGTGCGTATTTGACTATTCGTCTTATTTAAAAACGGAGTCACCTAGTGCAG”, 9800 fluorescence intensity (a.u.).
In the case of “AACGGTTGCAGCTCTAATTGAGGGCTTTGTTTAGTTCATGCGGAGTCACCTAGTGCAG” it was 8640 fluorescence intensity (a.u.); in that of “ATTCTTGCAGTCGTGTGTGCACCTAGCCATTTTCCTACTGCGGAGTCACCTAGTGCAG”, 8060 fluorescence intensity (a.u.); in that of “GTCTCCTCTTGCAAGGAAATTGTTAAAAGTTCTTCCTTATCGGAGTCACCTAGTGCAG”, 8940 fluorescence intensity (a.u.).
In the case of “GTTGTGTTGTGATGGATGACTTAATGGAAGTACTTCCGCACGGAGTCACCTAGTGCAG” it was 8930 fluorescence intensity (a.u.); in that of “CCTATGTTTTGTGATGGGGATTTAGTTTTATCCTTTTATTCGGAGTCACCTAGTGCAG”, 9750 fluorescence intensity (a.u.); in that of “CTCTCTTCGCGTTGCTGCCTAATGCGGTCTTAAGTGAGTACGGAGTCACCTAGTGCAG”, 8610 fluorescence intensity (a.u.).
Turning to “TTGGTATGGTATCTTGTTTCTCTGGCCAGAATCTGCACCACGGAGTCACCTAGTGCAG”, the binding signal is 10400 fluorescence intensity (a.u.).
For the sequence “CATCTTCTTCGTGTGTGCAGTGTGCGAGTAACTCGACTCGCGGAGTCACCTAGTGCAG”, the binding signal was 9390 fluorescence intensity (a.u.).
In the case of “ACGCGGTGCGACGACTCCGCCGAACACGAATACTTCTCCTCGGAGTCACCTAGTGCAG” it was 8940 fluorescence intensity (a.u.); in that of “CCACATCCCATTATACAAGACTGTGGTATTTCCTCTGAGTCGGAGTCACCTAGTGCAG”, 9080 fluorescence intensity (a.u.).
In the case of “CCGTTGCTGCCCATTTGCATCCTGCAGCATATTCCTGTCCCGGAGTCACCTAGTGCAG” it was 9730 fluorescence intensity (a.u.); in that of “CATACCAATACGGCCAATTGGCAACTGCTCATCGGAATATCGGAGTCACCTAGTGCAG”, 8280 fluorescence intensity (a.u.); in that of “GGTAGGGCTGCCGCCGGTGGGTAGGGGTGGTGGATTTTTTCGGAGTCACCTAGTGCAG”, 14400 fluorescence intensity (a.u.).
In the case of “ATATTGCATTTTGCAGTCTTTGCTTTTCAGTTACGTTCTCCGGAGTCACCTAGTGCAG” it was 11900 fluorescence intensity (a.u.); in that of “GTAAAATTGCATCCCGACCGGTCCCCAACTCTGACTGTCCCGGAGTCACCTAGTGCAG”, 8240 fluorescence intensity (a.u.); in that of “CATTTTTCGATTTTCGTTGCTCGAGCGCGCTCATTTCCCTCGGAGTCACCTAGTGCAG”, 11800 fluorescence intensity (a.u.).
“GCACAATACGCCCATGTCATGCGTTAGTTTCGAGCCAATTCGGAGTCACCTAGTGCAG”: the binding signal is 9430 fluorescence intensity (a.u.).
In the case of “ATATATATAACACAGGCATCCACATCTTCCTTTTTCTCAACGGAGTCACCTAGTGCAG” it was 9850 fluorescence intensity (a.u.); in that of “GTCTTTGTTGCTTCCTGCGGTAAGTTTAACTGTTCTACATCGGAGTCACCTAGTGCAG”, 9890 fluorescence intensity (a.u.); in that of “TTAATACATTATTATAACCACTGTTGTCGTTGCCGAGGTCCGGAGTCACCTAGTGCAG”, 8310 fluorescence intensity (a.u.).
